Experimental data published in patent US20100222337A1, “FUNGICIDAL COMPOSITION CONTAINING CARBOXYLIC ACID AMIDE DERIVATIVE” (Ishihara Sangyo Kaisha, Ltd., priority 2005, published 2010).
Some of these results come from one statement about several compounds together.

System: Botrytis cinerea
Assay: Test on preventive effect against kidney bean gray mold
Type: in vivo
Conditions: 500 ppm, spray on kidney bean (Taisyou Kintoki), 3 to 4 days after inoculation

## Cc1cc(Br)ccc1C(=O)C(C)(C)NC(=O)c1ncccc1C(F)(F)F [compound No. 1-2]
  controlling index (length of lesions): 4 (Length of lesions, number of lesions or area of sporulation is less than 10% of non-treated plot)
